# Values joined by “and” are separate entries in the source; they are usually repeats but may differ in a detail not shown here. Equal values may be shown once. The list shows a part of the results. These are further read-outs of the screen, such as a control signal, another cell line or another target. No call is given for them. For part of these data: The list favours compounds with an active or inconclusive main result. Potencies come from curve fits of mixed quality, noted in brackets. Peptide text beside a SMILES is read from it. * marks the point of attachment. Cbz = O=C(OCc1ccccc1)*
# Experiments:
# [1] = qHTS Assay for Inhibitors of PDE-IV (AID 607); details: HEK293 ACTOne CNG channel cells, membrane potential fluorescence; measured here: parental cell counter-screen
# How it was run: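 ACTOne HEK293 cells carry a modified cAMP-gated CNG channel and express endogenous PDE4; plated 1000 cells/well, compounds up to 22.9 uM final. Membrane-potential dye fluorescence (ex 535/em 590) was read; parental cells received 10 uM forskolin + 100 uM RO 20-1724.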
# [2] = Validation of Assay for Modulators of Lamin A Splicing (AID 1459); details: Lamin A splicing dual RFP/GFP fluorescence reporter, ratio
# How it was run: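 S3 HeLa cells stably expressing a lamin A-EGFP splicing minigene and DsRed2 were seeded at 600 cells/well in Opti-MEM with 2% FBS, pin-dosed, and incubated 48 hrs at 37 °C, 5% CO2. Laser-scanning cytometry (488 nm) gave GFP/RFP total intensity ratio.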
# [3] = qHTS Assay for Lipid Storage Modulators (AID 1519); details: Drosophila S3 cells, BODIPY lipid droplet/cell ratio, laser cytometry, cells loaded with oleic acid
# How it was run: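 Cells seeded at 5,000 per well were treated with compounds over a concentration series and loaded with oleic acid (400 uM, as added). Lipid droplet fluorescence (488 nm excitation, 500-530 nm channel) was read by laser-scanning cytometry and normalized to 20 uM Triacsin C.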
# [4] = qHTS Assay for Modulators of Human Peripheral Myelin Protein 22 (PMP22) Expression/Activity (AID 1967); details: Cell-based PMP22 reporter, dual-color luciferase ratio
# How it was run: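 MSC80 mouse Schwann cells stably carrying Pmp22 promoter–green click beetle luciferase plus EF-alpha–red luciferase control were dosed for 24h at 37 °C. Dual-colour luminescence was filter-overlap corrected; %Activity came from green/red ratio versus untreated cells.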
# [5] = qHTS Validation Assay to Find Inhibitors of Chronic Active B-Cell Receptor Signaling (AID 485345); details: ABC-DLBCL cells, chronic BCR signaling reporter
# How it was run: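 TMD8 ABC-DLBCL cells stably carrying doxycycline-inducible IkappaBalpha–green luciferase fusion plus unfused red luciferase; compounds 46 uM to 3 nM, 4 h at 37C with doxycycline. Corrected green/red luminescence ratio normalized to 10 uM MG-132 and basal cell wells; curves fitted.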
# [6] = Nrf2 qHTS screen for inhibitors: Validation (AID 493153); details: A549 ARE-Fluc reporter, 18-24 h; AC50: CellTiter-Fluor fluorescence read, measured here: cytotoxicity CellTiter-Fluor AC50; viability change: measured here: cytotoxicity max response
# How it was run: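 Concentration-response test in A549 ARE_Fluc reporter cells (5% FBS OPTI-MEM), compound exposure 18-24 h at 37°C, 5% CO2. Cell viability measured first by CellTiter-Fluor fluorescence; ARE-driven luciferase luminescence then measured as Nrf2 activity.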
# [7] = qHTS drug screen for cell cycle checkpoint inhibitors in PARPi-resistant BRCA-mutant ovarian cancer cell lines. (AID 1963452); details: PEO1/OlaR viability, CellTiter-Glo luminescence, 96 h; measured here: PEO1 parental viability
# How it was run: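 PEO1, PEO4 and PEO1/OlaR ovarian cancer cells, 600 per well, exposed 96 h at 37C to a dilution series. Viability read by CellTiter-Glo luminescence, normalized to DMSO and empty wells; activity summarized as Z-AUC.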
# [8] = measured here: cell count channel max response
# [9] = measured here: cell number channel AC50
# [10] = measured here: lipid (BODIPY) channel AC50
# [11] = measured here: lipid channel max response
# [12] = measured here: green reporter channel AC50, mouse Pmp22 promoter in mouse Schwann cells
# [13] = measured here: red reporter channel AC50, EF-alpha promoter control reporter in MSC80 mouse Schwann cells
# [14] = measured here: CBR control luciferase (viability counter)
# [15] = measured here: CBG/CBR ratio read-out
Structure (SMILES),AC50 [1],AC50 ([2]; measured here: GFP channel),AC50 ([2]; measured here: RFP channel),"max response [3, 8]","AC50 [3, 9]","AC50 [3, 10]","max response [3, 11]","AC50 [4, 12]","AC50 [4, 13]","AC50 [5, 14]",viability change [6] [%],AC50 [6],AC50 [7],"AC50 [5, 15]"
CCCCNc1c(C(=O)OCC)c(C)nc2c1cnn2CC,"5.01 µM [rising, partial curve, poor fit]","28.2 µM [rising, single point]","31.6 µM [rising, single point]",30.7%,"2 µM [rising, full curve, poor fit]","1.58 µM [rising, full curve, poor fit]",28.2%,"84.9 µM [falling, single point]","67.5 µM [falling, partial curve]","7.31 µM [falling, partial curve]",–,–,–,–
[N-]=[N+]=Nc1ccc(C(=O)CSC[C@H](NC(=O)CC[C@H](N)C(=O)O)C(=O)NCC(=O)O)cc1,–,"0.794 µM [rising, full curve]","0.794 µM [rising, full curve]",-35.1%,"1.41 µM [falling, full curve, poor fit]","1.41 µM [falling, full curve, poor fit]",-33.8%,"67.5 µM [falling, partial curve]","21.3 µM [falling, partial curve, poor fit]",–,3.1,–,–,–
O=C1Nc2ccc(I)cc2/C1=C/c1cc(Br)c(O)c(Br)c1,–,"20 µM [falling, single point]","14.1 µM [falling, partial curve]",70.8% and -18.3%,"12.6 µM [rising, partial curve]","12.6 µM [rising, partial curve]",100% and -16.3%,"47.8 µM [falling, partial curve]","37.9 µM [falling, full curve]","16.4 µM [falling, single point]",-35.7,"13 µM [falling, single point]","12.3 µM [falling, single point]",–
O=c1ccc2c(OCCCCc3ccccc3)c3ccoc3cc2o1,"12.6 µM [rising, partial curve]","11.2 µM [rising, single point]","11.2 µM [rising, single point]",56.4%,"39.8 µM [rising, partial curve, poor fit]","39.8 µM [rising, partial curve, poor fit]",58.6%,"47.8 µM [falling, partial curve]",–,"11.6 µM [rising, partial curve]",–,–,–,–
CC(C)[C@H](NC(=O)OCc1ccccc1)C(=O)N[C@H](C=O)Cc1ccccc1 (Cbz-Val-Phe-aldehyde),–,"25.1 µM [falling, partial curve]","25.1 µM [falling, partial curve]",-58.6%,"3.55 µM [falling, full curve, poor fit]","3.55 µM [falling, full curve, poor fit]",-60.8%,–,"10.7 µM [rising, partial curve]",–,–,–,–,–
CC(C)N(CCC(=O)c1ccc2ccccc2c1)Cc1ccccc1,–,"10 µM [falling, partial curve]","10 µM [falling, partial curve]",33.8% and -99.2%,"7.08 µM [rising, full curve, poor fit] and 14.1 µM [falling, partial curve, poor fit]","25.1 µM [falling, partial curve, poor fit] and 12.6 µM [falling, partial curve, poor fit]",-80% and -103%,"26.9 µM [falling, full curve]","21.3 µM [falling, full curve]","9.2 µM [falling, partial curve]",–,–,–,"4.61 µM [falling, single point]"
O=Nc1c(-c2c(O)[nH]c3ccccc23)[nH]c2ccccc12,"10 µM [falling, partial curve, poor fit] and 10 µM [falling, partial curve]","10 µM [rising, partial curve]","10 µM [rising, partial curve]",-90.1% and -77.3%,"20 µM [falling, partial curve, poor fit] and 22.4 µM [falling, partial curve, poor fit]","22.4 µM [falling, full curve, poor fit]",-101% and -89.6%,"47.8 µM [falling, partial curve]","37.9 µM [falling, partial curve, poor fit]","18.4 µM [falling, single point]",-46,"23.1 µM [falling, single point]",–,"4.11 µM [falling, single point]"
C[N+](C)(C)CCC(=O)c1cccc2ccccc12,–,"22.4 µM [falling, partial curve]","1.12 µM [falling, full curve]",-67.6%,"10 µM [falling, full curve]","8.91 µM [falling, full curve]",-77.9%,"26.9 µM [falling, full curve]","33.8 µM [falling, full curve]",–,–,–,–,–

# Source: PubChem BioAssay (NCATS)
